Assay results: US20260102359A1, “COMBINATION TREATMENT OF DERMAL AND TRANSDERMAL FIBROTIC DISEASES, DISORDERS AND ASSOCIATED PAIN AND INFLAMMATION” (ERESINA, LLC, priority 2022, published 2026)

Tested on: hDMFa myofibroblast cells
Set-up: key to the marks not given beside the values

Structure (SMILES)	Compound Myofibroblast Cytotoxicity Activity
O=C1OCCN1/N=C/c1ccc([N+](=O)[O-])o1 [Cmpd 475, Furazolidone]	++
Cl.NCCC[C@H](N)C(=O)O [Cmpd 551, L(+)-Ornithine hydrochloride]	+++++
